The labels stand for the following.
B1: Exo70 (protein, UniProt Q9VSJ8 1-693)
chain: MNNLDSSLQAHNKLEKEATNLALLKDRVDKYHDLSTQMSSILTIFEKRLGNLEQTILPVYQETEQLQKRQQNLEATLNCLESVLSHYDVSQEVCQLIHQGPVEGNISVFLDALAKLRDANDYFRHNNSQSVELENVTSLFNTGCEGLSQHYSMLLKKHSAPLKPVELLDLIYIEDDSSDEYTSFRQLSQTTREELYTISHWLEQNLREYTNIYATERGEVVLRSLQLLKDHQKSNSWGHEALRPRHSGRQTEPKKTTSARLQQIFEKKANKLYLRATQTIEQSTGFSIKKASSHSDHLTSEDLMDGDQELDKYLVMLLGLQRLLNWERAIMIDIIPQSKHNEVFATLAYNAIDLVVKDAEAITQRILRCISRKEWTSALGIFSALKRVILLQPDIDRTYDPAQREQLKKVLKKLQHTGAKALEHFLDVVKGESSTNIVGQSNVPKDATVHELTSNTIWFIEHLYDHFDVIGSILAQDVLYSTQLDTILMKKALPVEERNKALLAIYIKKALAELNLSIMNKCEQYNDQATKHLFRLNNIHYILKSLQRSNLIDLVTLAEPECEHSYMEMIRELKASYQKTWSKMLVGIYSLDELPKPVAGKVKDKDRSVLKERFSNFNKDFEEACKIQRGISIPDVILREGIKRDNVEHILPIYNRFYEIYSGVHFSKNPDKYVKYRQHEINAMLSKLFDDSA
B2: like-AP180 (lap) (protein, UniProt Q9VI75 1-468)
chain: MTMAGQTINDRLLAARHSLAGQGLAKSVCKATTEECIGPKKKHLDYLVHCTNEPNVSIPHLANLLIERSQNANWVVVYKSLITTHHLMAYGNERFMQYLASSNSTFNLSSFLDKGTVQDGGMGVPGGRMGYDMSPFIRRYAKYLNEKSLSYRAMAFDFCKVKRGKEEGSLRSMNAEKLLKTLPVLQAQLDALLEFDCQSNDLSNGVINMSFMLLFRDLIRLFACYNDGIINLLEKYFDMNKKHARDALDLYKKFLVRMDRVGEFLKVAENVGIDKGDIPDLTKAPSSLLDALEQHLATLEGRKVSAANTPTQSSSSAFGTAAASSKFDTTNGIDEQLKAQVLAEEEAAMNQYKSKVSSPTSSGAAGASAALTNPFLSSPPAAQAGQPIVDLFGAASAQPAAAAAATKASDDLLQLGNPFADMFDASGGGAAAVGATGNAGDGTAKYDGGAGSSPFDWGATDDDGGAAQ
B3: Sec10 (protein, UniProt Q9XTM1 1-710)
chain: MLSQYMEEFEQEPFEVGEFIERLTWRTNNELQNSEDFHPVALHDTFIQTIKDLKILQEKQQSKCERLEESLRQEKESHAKKIAKLQERHQTAIDVFGQLDEKINSVAGKIMHLGEQLENVNTPRSRSVEAQKLLNFMSEFLAAGPVIVNDIFADAARLSEAADVIQKLYAISQDLPPGNFAESKRKIEKKYDEVERRLIEEFATAQKSEDIERMKTLAQILSQFKGYTQCVDAYIEQSQMQPYSGKDIFIGIVPLCKHHYEIIQKVFANPQQVMSKFILNIYQLKLHQYAMTKLEDKKDEEKYLRTLYELYSRTLKLSTDLQIYMSTIDDDLLQKLTQQIFIKHLAGYAEMETKCLTAKCSTELEKFYASKKHQKTATTKGFRRNMEVLIATRANINIAAIEDYGGETFLSEELAINMLQEAKASLKRCRLLSNETELPGNAIKLNDILLRFLMHEHVDYALELGLQAVPLAEGRVFPQLYFFDVVQKTNIIVHLLDKLCHTSVIPCVSNTPKYSDYVFKKRILMEQIETKLDQGLDRSISAVIGWVKVYLQYEQKKTDYKPETDVDTISSAACLQVVQNLQPVIVQIKKCVDGENLQNVLTEFGTRLHRVIYDHLQTMQFNTAGAMCAICDVNEYRKCIRELDSPLVTQLFDILHALCNLLLVKPQNLQEVCTGDTLNYLDKSVVRQFIQLRTDFRIIKNTNYLKGIIE
B4: Sec8 (protein, UniProt Q9VNH6 1-985)
chain: MDAPPPTKPPRGVKYGKDESAGCGFLVNVIKSLGFSETTEERQKEKQKIEAEFKRSDLRLNELVSRHDQQLTQVLPLFSQVSSEVTASRERIHAVKENLGVCKRLLQCRRDELRKMWMDAVQHKYVLEMLEQIQELRKVPQRVVGYTAKRQYLHASKALTDALTTLNGPLQAVEGLSDLRTDLQTRRQQLYQRLHEELVTQVYTNSANEALSSFQRTNSSRLNSSFTRGIGARRSTDRIEANARVRKALAEMAQSFDLDKAEVIEDADLIYPELSMSYFVAIIVESFGMLHKVPDSLETLRVQIQTELLNVVRHTTHQLSVSGATADTNPLLSLLEVIFKQFKAIAKTHSLLLKNYLSVGQKYSVVGPQPYDLTDFWAQAQSVLQLLLTDYLDIQNAAADESAQTGFSEPTSNINSYFLRRKVPSTKRSMFKFDKSSHVGTSNNSDAFKEHRRNASDASVDDNLAGQLGGSGKGSTSGLFPHEKKQREKILICTPDQSIITKVYLPLMGYIKEIENFMKCKPGQPCSLHDFLDNYIKDTFLTKGHNRNLQLTIESLSKNQDAWRTIISPEEIKALNLSRPLLQSTVMVERRLMETKNLIQDLPCYSEDLLKMVCALLKAYREICQAAYRGIVQPDSEDKRIYSVAWLKDEDISRFLKTLPNWTDLKTYSQKSRHNRKLHRGSFEPSEEESPLQVQQRNIREAEMLTSNLGEGGITQQEILVEISVLKELAILQESMEWFSCRVSEFANDLRRPLVNGLNAVPAECGADIAVKDGTIKVMTNLALEFDELANTCLLVLHLEVRVQCFHYLRSKSSVRTNSYVGSKDDILEPDRQVQVLTKRLSEMDEAFSATLHPRKTRYIFEGLAHLASRILIQASNYLEHIDQITVQRMCRNAIALQQTLSNITASREVALDQARHFYELLCMEPDEILNALLERGTQFSEMQLLNALQLSCKSFGITDANLLASYQQKLSDILGAKPSKGVVV
B5: Sec6 (protein, UniProt Q9V8K2 1-738)
chain: MDLQQLEEQARQAALKDIQNMLQRPGQLEKVEQYRHRIARKKASVEALLKTGMQGQLDGVRVGLKQLETCMQDVREVRRRMDEVERLLRGVPEVYDALEVVREENTKHSQYATAMENLKHIFNVDASVQKTMALIEDDKLLNAHQCLADLENSRDDLLYELHKQPKQHASDKITLKRHFEKVDTVSQELEKKLRLILSRTLNTLRKKPTIIVTALRIIEREEKNDQFALQQQKVTGFLPPGRPKAWRRMIMDVLQQSVITRIEGSKLEERADNKMWLVRDLEILRQIILEDLRVVKSLCVPCFPPHYDIFGEYVKFYHEGLSSYLDNIVRSGLEGNEYVSMMAWVTHTYPGVELMSHPDLNVDVHRQIGTLLRPEHLKALEDEYLQNMQRNFQEWMTKAAETEKQEWFTETVPDQDEEYYHTSAPVIIFQMIDQHLQVTNTIHQELTFKALVMSIQQVEIFGQTYLKNVIELKEHHFRNRDQIKYFTHYIITIVNNSQQMVELAQQMKQLYWPKSRTEHYEDFERLLATFQRIRAHAASYLLEEAFLDMECHFNDLFTAKWLASNIAVDTICVTLDDYFQDYNHLRPNNFEMVINEAQKLLAKRYIRALLSKRLSKPRAECDAITRKIKTEAKRFKLFFEKIAPKISLSDSPLDLISTLSALLSSDIELLVLDLHTLLGSYPSLNEDHLVRLFYIRNDVKAAEVREKVQDAMKSKKAMVSIAKQDCIFKEIVFSDKLW
B6: Stoned B (stnB) (protein, UniProt Q24212 1-1262)
chain: MANPFLMDEDLDGCDAAANPFLMQSEPEPSSDNPFMAATVASNPFAFGADDLELGAEPEAEATHDNDLDPAMSFFGTTIEAEDDTLSLKSGAEEEDEGKKPPQSQPQLQSHAHPHPPPPRPLVPPQSTQDLISTVSSQLDETSSELLGRIPATRSPSPVSMRDLHSPSPTPDSGLADLLDVSVDSGSSAHTQGIEADLISGVAGGVRLDNPFAVPTAVPNIQAAVPLPATPIKQPPRPPPPRPAPPRPAPPGQAAPQRPPPPLAAVNPPPAAPEADDLLDMFGTTACKPAKPPPPKSKEDILSLFEQPHVPLSQPASKPDLLHDDLDETIGEGEPPEQEEPDTEQSNEISSRDEPVFTSLLIRPDESTHDITSQPQAATGLERQVNNMAAPSGTASTQRATTPDIEITTVEDLPRSDDEDEPEAMQEPETETKPQIEPDTEPEIVSEHSPPTERLVTQAALVDGELIAAEPEPEEMDTGLDFPLASSGQLSANPFASPDEEEPNFAPMPAAVANIFAVNDPDSQMETPKAPSHTANIFASDPDEFDAFSAKFDSVKKDNISIMDGFGGSGAITPTGGDAWGGSAFGSTTISANACGDTNSADDGFGNDDDDFYAMQAPARADSVESVDKDFSVVIRPMAEETSGVAPQLAPPPPPARGVNQAQTTSLPGLTVNPFEDVSGFPAPGLPPTDGTAIKRTDSQDTPQTPLYDEDVSQPLEEFPRLHYIGPGWEMQLRQPNKKKITGQRFWKKIVVRLVVQNDVPVVQLLNQAGDKQPFQELPLQPSYSVSEIGAQQYDQFGKIFTMKLQYIFYKERPGVRPGQVTKAERITNKLTKFAQYAIAGDYEGVKEFGSDLKKLGLPVEHAPQSSQLFKIGSMNYEDMKQFSVCIEEALFKIPALRERALTYKMEEVQVTAVDEITVEQDFEGKILKQIARVRLFFLAFLTGMPTIELGVNDMWRQGKEVVGRHDIIPVATEEWIRLEAVEFHSVVNQKEYERTRTIKFQPPDANYIELLRFRVRPPKNRELPLQLKATWCVSGNKVELRADILVPGFTSRKLGQIPCEDVSVRFPIPECWIYLFRVEKHFRYGSVKSAHRRTGKIKGIERILGAVDTLQESLIEVTSGQAKYEHHHRAIVWRCPRLPKEGQGAYTTHQLVCRMALTSYDQIPSELAPYAFVEFTMPATQVSHTTVRSVSVQDSDGDEPPEKYVRYLARHEYKVGIETTHGESTNAYLAATRPIREEPPTTATKPTASPVAPSDSDTDSN

Results are given in words; binding and its absence hold for the method and conditions named. Binding seen in cells or lysates may run through a third protein. A yes stands for co-enrichment or nearness to the bait. Other partners may have been found.

This experiment has as its target GFP-tagged, full-length Dystroglycan (Dg::GFP) (Drosophila melanogaster). Briefly: affinity purification with mass spectrometry; Dg::GFP immunoprecipitated with GFP-Trap beads (anti-GFP) from lysates of adult fly heads in RIPA buffer (50 mM Tris-HCl pH 7.5, 125 mM NaCl, 0.5% NP40, 0.25% Na-deoxycholate); SDS-PAGE, in-gel Lys-C digestion, LC-MS/MS; proteins enriched at least twofold over control in two biological replicates taken as Dg interactors.
For the molecule B1, the binding entry was “binds”. As for B2, the entry is “binds”; as for B3, “binds”; as for B4, “binds”. As for B5, the binding result was “binds”.

For B6, the binding result is “binds”.

These data come from publication PMC7929561.
